No constants are given. Whether binding was seen depends on the method and setting.
Target: T1, full-length RAD51AP1 (RAD51 Associated Protein 1), wild type (UniProt Q96B01)
T1 sequence: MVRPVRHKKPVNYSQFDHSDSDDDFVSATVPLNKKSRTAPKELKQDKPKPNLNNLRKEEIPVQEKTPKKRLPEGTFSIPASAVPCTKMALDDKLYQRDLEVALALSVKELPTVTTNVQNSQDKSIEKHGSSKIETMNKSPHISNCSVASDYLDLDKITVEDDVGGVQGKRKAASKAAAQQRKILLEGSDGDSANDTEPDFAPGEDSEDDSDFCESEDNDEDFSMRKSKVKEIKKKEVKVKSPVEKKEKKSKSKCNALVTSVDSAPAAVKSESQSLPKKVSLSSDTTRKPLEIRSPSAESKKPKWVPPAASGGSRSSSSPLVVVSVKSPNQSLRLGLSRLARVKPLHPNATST
Assay: pull-down

Protein sequences, listed by entry. Tags and fused reporters are not part of them. Lines headed by an entry give the natural chain unless they say otherwise; changes in a name come on top.
UniProt Q06609: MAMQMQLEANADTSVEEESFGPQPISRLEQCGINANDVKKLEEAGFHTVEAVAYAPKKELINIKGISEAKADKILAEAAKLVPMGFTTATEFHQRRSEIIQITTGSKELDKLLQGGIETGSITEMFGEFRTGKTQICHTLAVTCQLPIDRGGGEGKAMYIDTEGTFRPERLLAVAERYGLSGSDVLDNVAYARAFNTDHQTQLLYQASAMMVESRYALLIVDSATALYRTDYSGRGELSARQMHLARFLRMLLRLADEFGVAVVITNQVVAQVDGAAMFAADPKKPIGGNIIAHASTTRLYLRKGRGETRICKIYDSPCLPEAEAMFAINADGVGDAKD

- binding: no binding (tested: 1 µM)
Substance: RAD51-F86E (oligomerisation defective mutant) (from UniProt Q06609 1-339)
